In the supplement of paper PMC3334620:
The full ranking holds about 33,000 sequences; the median of “E-score (-0.5 to 0.5)” is about -0.016, and the highest 2% start at about 0.3. This is one part of the list.

Each sequence was assayed against T1, Yer184c (UniProt P39961) (assay: PBM E-score (8-mer binding enrichment) (E-score (-0.5 to 0.5)); higher = stronger / more preferred TF binding). Conditions: protein concentration: 100 nM; construct: GST-full length.
T1 sequence: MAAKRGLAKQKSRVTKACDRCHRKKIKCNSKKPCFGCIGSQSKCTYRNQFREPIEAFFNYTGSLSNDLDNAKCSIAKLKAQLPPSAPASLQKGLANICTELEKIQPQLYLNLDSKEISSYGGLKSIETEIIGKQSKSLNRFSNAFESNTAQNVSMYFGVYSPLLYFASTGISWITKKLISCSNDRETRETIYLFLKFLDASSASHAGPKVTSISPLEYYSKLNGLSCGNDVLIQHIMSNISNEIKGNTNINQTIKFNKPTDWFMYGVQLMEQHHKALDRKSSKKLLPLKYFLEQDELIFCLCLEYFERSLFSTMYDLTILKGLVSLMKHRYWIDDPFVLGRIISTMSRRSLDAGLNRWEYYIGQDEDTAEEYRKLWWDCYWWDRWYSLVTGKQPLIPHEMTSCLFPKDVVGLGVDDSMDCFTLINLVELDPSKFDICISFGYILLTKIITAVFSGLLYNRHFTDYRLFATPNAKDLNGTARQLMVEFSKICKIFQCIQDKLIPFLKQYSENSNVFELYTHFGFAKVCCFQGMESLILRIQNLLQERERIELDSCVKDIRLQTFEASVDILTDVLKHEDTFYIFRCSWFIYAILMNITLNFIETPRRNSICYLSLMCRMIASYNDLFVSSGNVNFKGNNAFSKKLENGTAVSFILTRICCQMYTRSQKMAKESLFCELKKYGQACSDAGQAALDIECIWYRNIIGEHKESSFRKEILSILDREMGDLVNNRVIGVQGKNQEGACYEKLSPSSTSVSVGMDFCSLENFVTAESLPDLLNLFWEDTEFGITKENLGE
How it was run: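 Full-length yeast transcription factors or their DNA-binding domains, GST-tagged and expressed with PURExpress, were applied at about 100-200 nM to universal all-10-mer Agilent arrays. These arrays had been made double-stranded by primer extension on fresh or once-stripped slides. Detection used fluorescent anti-GST, normalisation used masliner, and E-scores for ungapped eight-base words pooled with reverse complements came from the Universal PBM Analysis Suite.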

Row | Sequence | PBM E-score
1 | GCGGAGGA | -0.132
2 | AAACGGAA | 0.403
3 | ACGCGTGG | 0.0299
4 | CAACTAAC | 0.236
5 | CCAGACGC | -0.283
6 | CCTATGGA | -0.186
7 | CCTGGTGC | -0.0316
8 | AGGTCAGA | -0.155
9 | ATGCTCGG | 0.11
10 | TTAGTCAA | -0.0771
11 | CTCCCGGC | 0.28
12 | AAACGTCT | 0.0794
13 | CGTTGTCA | -0.00172
14 | AAGTGGAT | -0.119
15 | CCGTGACA | -0.0256
16 | AGGCTTTG | -0.172
17 | CGGGTGGC | -0.0483
18 | GATCTGTA | -0.0435
19 | AGGTCATG | -0.148
20 | GTATCTGA | -0.144
21 | AGTCAGCA | -0.0623
22 | ACAGGGGA | -0.249
23 | TACGTGGA | -0.2
24 | CCTTGTCC | -0.0002
25 | CGTTGAAG | 0.0128

Row | Sequence | PBM E-score
26 | CTCTGCTC | -0.0669
27 | AGCTTAAT | 0.201
28 | CCTCTAGA | -0.0844
29 | ATACTTGC | -0.0392
30 | GCGAGTAC | 0.0596
31 | CCGAGGCC | 0.0408
32 | CAACTGTC | -0.084
33 | ATACTTCC | 0.0334
34 | GACTGGGC | -0.196
35 | GAATACTC | -0.0235
36 | ATACGAGA | -0.148
37 | ACGTGGGG | -0.255
38 | CGATCTGC | 0.0352
39 | GCGAGGTA | -0.0496
40 | GTCGATGA | 0.0373
41 | ACTCGGGG | -0.0276
42 | GGACTGTA | -0.0506
43 | ACATCGCT | -0.119
44 | CGGCAAAC | 0.299
45 | AGGTTCCA | -0.0593
46 | CCTCCAGA | -0.0632
47 | AATGCGGT | 0.0128
48 | AGGCAGAT | -0.0853
49 | CGTTTTAG | -0.0367
50 | GGACCACA | 0.0635

Nos. 40 to 46, quoted:
Row | Sequence | PBM E-score
40 | GTCGATGA | 0.0373
41 | ACTCGGGG | -0.0276
42 | GGACTGTA | -0.0506
43 | ACATCGCT | -0.119
44 | CGGCAAAC | 0.299
45 | AGGTTCCA | -0.0593
46 | CCTCCAGA | -0.0632

Carrying on.

Row | Sequence | PBM E-score
51 | GCTCAGGA | 0.00189
52 | AAAGTGTT | 0.133
53 | ACGAAGTA | -0.0417
54 | TAGAACGA | 0.11
55 | ACTCACCC | 0.0156
56 | ACTCCGCC | 0.00671
57 | AATATGTA | 0.25
58 | AGGTTCGC | -0.153
59 | ACGACAGG | -0.0972
60 | CAAGTGAA | 0.025
61 | TGAACGAA | -0.118
62 | ATACACCC | 0.0108
63 | GGAGTCCA | -0.032
64 | TAATTAAA | 0.12
65 | CATCCCTC | -0.21
66 | ATCATTGG | -0.149
67 | TAAATGCA | 0.072
68 | AGCGTTGC | -0.00053
69 | AAGAGAAG | 0.0649
70 | AGTCAGAG | -0.0672
71 | TAATCGCA | 0.0619
72 | CAACGGCG | 0.0934
73 | AGTGTTGC | 0.0906
74 | CCTTTTTA | -0.0252
75 | CGAGGTTA | -0.00293

Row | Sequence | PBM E-score
76 | TGAGGCCA | 0.0298
77 | ACTGTGCA | -0.153
78 | AGCCTACG | 0.133
79 | CATTGGAC | -0.0168
80 | CGTAAATC | 0.0501
81 | TCGGTGAA | 0.105
82 | AAGCTTAC | -0.104
83 | TAACATGA | 0.0607
84 | AAAACCTC | 0.158
85 | CGCCCTGC | -0.082
86 | GAGGGAGA | -0.14
87 | ATTAAGCA | -0.00063
88 | CAGTGCTC | -0.101
89 | CACGTACA | -0.138
90 | AGTCCGCC | 0.169
91 | ATAGTAAG | 0.0588
92 | GCGAGTTA | 0.0711
93 | CAGCTTCG | -0.0525
94 | GACTTCGA | -0.0506
95 | CGCAACCG | 0.266
96 | GATTTAGA | 0.166
97 | AAGCGTAC | -0.243
98 | ATAGGATG | -0.115
99 | AATCTATA | 0.201
100 | AGCGAGGC | -0.11

Row | Sequence | PBM E-score
101 | CGGGGTGA | 0.0178
102 | GAAACTTA | 0.197
103 | CGTAGAAA | 0.129
104 | AGTTTTTA | 0.191
105 | AGATTCAT | -0.0957
106 | AGGAAGCA | -0.138
107 | CAGTCGCC | -0.021
108 | TGAACCCA | 0.0217
109 | CCTGAGGA | -0.11
110 | CAAGTGGA | -0.158
111 | AAACTTTA | 0.135
112 | AGCCGGAT | 0.402
113 | CGTACTAC | -0.00152
114 | CACAACAA | 0.108
115 | AATCTGGT | 0.00445
116 | GACCAAAC | -0.0172
117 | GCTCAGCA | -0.0401
118 | TAGTCCGA | 0.203
119 | AAGTATTA | 0.0259
120 | ACACCCGC | 0.0605
121 | ACCCCTAC | -0.428
122 | AATAGGTG | -0.178
123 | CTTGGACA | -0.101
124 | AGCCCTAT | -0.119
125 | CTTACACC | -0.162

Row | Sequence | PBM E-score
126 | AAAAACAT | 0.027
127 | CGAGCAGC | -0.0206
128 | GAGGATCA | -0.044
129 | GTGGTTGA | -0.0466
130 | AATTTAGT | 0.234
131 | AGATGGAA | 0.0987
132 | TGCGGCCA | -0.0382
133 | CCAAATGG | 0.0226
134 | CGGTTCGC | 0.0153
135 | AAGGCGTA | -0.0885
136 | ATAGGCTG | -0.0893
137 | AGTCAGGG | -0.368
138 | ACTATGTC | -0.0654
139 | AGCCTTGC | -0.15
140 | ACGTAGGG | -0.335
141 | GCTTCGAC | -0.19
142 | ACTCTGAG | -0.169
143 | CGGTCGTC | -0.0988
144 | ACCATGGT | -0.432
145 | CCCCTTTA | -0.142
146 | ATACTCTC | 0.0198
147 | CCCCCACC | -0.4
148 | CACGGGAA | 0.0605
149 | GAGAACCA | -0.00661
150 | CCCAGACG | -0.245

Reformatted as tab-separated lines: entries from further up.
Row	Sequence	PBM E-score
133	CCAAATGG	0.0226
135	AAGGCGTA	-0.0885

Next entries follow:

Row | Sequence | PBM E-score
151 | AGGCTCAG | -0.163
152 | CCTAGGTA | -0.156
153 | GGCGGAAA | 0.108
154 | ATACCCCC | -0.214
155 | CGGGAAAC | 0.286
156 | AAATTCAT | 0.0832
157 | ATCGTCCG | 0.242
158 | CACCCGTA | -0.128
159 | ACTTCATG | -0.111
160 | AGAGGAGC | -0.17
161 | AACAGTTA | 0.125
162 | CCGCGAAC | 0.0269
163 | ACGCGCCG | 0.058
164 | AATCCATG | -0.106
165 | AGGGCACT | -0.381
166 | CTCCCATA | -0.308
167 | ATCTCTTG | -0.172
168 | GAGGGAAA | -0.184
169 | GCTACGCC | -0.255
170 | ATTGCAGA | 0.129
171 | CCGTAACC | 0.222
172 | ACAGCCAC | 0.0446

Pulled one by one from the list above (2):
Row | Sequence | PBM E-score
162 | CCGCGAAC | 0.0269
171 | CCGTAACC | 0.222
